According to PMC9138745:
The exact form of at least one protein or probe is not confirmed. Results from cells or extracts need not show a direct contact. For part of these data: A weaker result is weaker than the reference pair of the same experiment.

Amino acid sequences for entries named in this document (tags omitted). Residues count along the entry.
UniProt Q9NZQ7, 19-290: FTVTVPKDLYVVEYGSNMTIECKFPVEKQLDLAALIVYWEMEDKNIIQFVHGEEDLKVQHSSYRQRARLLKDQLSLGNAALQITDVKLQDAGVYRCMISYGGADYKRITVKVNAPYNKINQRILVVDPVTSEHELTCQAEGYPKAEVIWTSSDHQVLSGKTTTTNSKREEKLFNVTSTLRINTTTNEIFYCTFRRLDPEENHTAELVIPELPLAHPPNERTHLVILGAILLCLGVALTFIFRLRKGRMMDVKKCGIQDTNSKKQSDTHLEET

Legend:
[1] = biological target: PD-L1 (CD274) displayed on extracellular vesicles (UniProt Q9NZQ7); assay: bead-captured EV chemiluminescence assay (streptavidin-ALP/CDP-Star); details: Aptamer in 3% BSA-HEPES, room temperature, after blocking with BSA, salmon sperm DNA (0.5 mg/mL) and 500 mM arginine in HEPES, protein on the cell surface, label: 5' biotin, single-stranded DNA
[2] = biological target: PD-L1 (CD274) displayed on extracellular vesicles (UniProt Q9NZQ7); assay: confocal microscopy of bead-captured EVs; details: 30 min, no fluorescence on beads with PBS instead of EVs, Aptamer in 3% BSA-HEPES, room temperature, after blocking with BSA, salmon sperm DNA (0.5 mg/mL) and 500 mM arginine in HEPES, protein on the cell surface, label: 5' Cy3, single-stranded DNA

“AAGACGGACCAGCCTTGCCGCAAGACGGACCAGGGATT [Biotin-PD-L1 aptamer]”: binds ([1]; 0.075 uM aptamer, 30 min (optimized), EVs vs PBS blank).

“AAGACGGACCAGCCTTGCCGCAAGACGGACCAGGGATT [Cy3-PD-L1 aptamer]”: binds [2].

“ACGACATACCGGCCTTTCCGCAAGACGGACCAGGGGT [Biotin-PD-L1-scrambled]”: binds more weakly ([1]; lower CL intensity than PD-L1 aptamer, level versus PBS not stated, 30 min).
